These are yes or no findings as the source states them, for the method shown. Binding can be weak; no strength is given. For some assays here: In cells and extracts the contact can be indirect.

Assay [1] addresses Thermotoga maritima encapsulin shell protein (Thermotoga maritima). Kind of assay: cryo-EM structure; FLP-loaded encapsulin, co-expressed in E. coli and purified as a complex; 2 mg/mL, 0.05% NP-40; 2D classes, I1 reconstruction of the shell (3.3 Å), C1 reconstruction, symmetry expansion and focused classification of the FLP at a pentameric vertex (shell ~3.5 Å, FLP ~7 Å); both purified.

The target in assay [2] is Thermotoga maritima encapsulin shell protein W90E (Thermotoga maritima). Kind of assay: co-purification; shell (W90E) and FLP co-expressed in E. coli; encapsulin purified by heat step, ammonium sulfate, ultracentrifugation and Superose 6; purified sample said to contain the FLP cargo; both purified.

B1: Thermotoga maritima ferritin-like protein (FLP) cargo (natural protein, UniProt Q9WZP3 1-114, looked up)
chain: MADQYHEPVSELTGKDRDFVRALNSLKEEIEAVAWYHQRVVTTKDETVRKILEHNRDEEMEHAAMLLEWLRRNMPGWDEALRTYLFTDKPITEIEEETSGGSENTGGDLGIRKL
notes: ferritin-like protein, native cargo of the Thermotoga maritima encapsulin; Decamer with fivefold symmetry; The map of the cargo (EMD-24002) has no atomic model of its own; a homologous FLP crystal structure (PDB 5DA5) was docked as a rigid body; also called cargo protein; ferritin-like cargo protein; copies: 10
In the case of B1, the binding result in assay [1] and in assay [2] was “binds” throughout.
